Results from the supplement of paper PMC3334620.
Whole data set: some 33,000 sequences, median “E-score (-0.5 to 0.5)” near -0.0014, cut for the highest 2% near 0.25. The list shows a part of the results.

target: T1, Cad1 (UniProt P24813); assay: PBM E-score (8-mer binding enrichment) (E-score (-0.5 to 0.5)); higher = stronger / more preferred TF binding; details: protein concentration: 100 nM; construct: GST-full length
T1 sequence: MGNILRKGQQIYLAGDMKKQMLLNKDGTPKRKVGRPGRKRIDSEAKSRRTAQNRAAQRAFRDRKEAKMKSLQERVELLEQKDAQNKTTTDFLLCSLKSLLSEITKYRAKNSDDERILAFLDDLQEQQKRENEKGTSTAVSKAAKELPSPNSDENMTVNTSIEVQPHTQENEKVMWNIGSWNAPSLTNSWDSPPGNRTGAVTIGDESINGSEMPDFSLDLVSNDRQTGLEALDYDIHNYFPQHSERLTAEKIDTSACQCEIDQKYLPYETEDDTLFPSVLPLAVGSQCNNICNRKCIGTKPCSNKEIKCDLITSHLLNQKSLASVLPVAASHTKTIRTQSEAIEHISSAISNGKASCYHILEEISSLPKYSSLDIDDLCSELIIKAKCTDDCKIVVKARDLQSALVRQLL
Procedure, shortened: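 Detection of bound protein used fluorescent anti-GST, with scans normalised by masliner. The proteins were GST-tagged yeast transcription factors applied at about 100-200 nM to universal all-10-mer Agilent arrays made double-stranded by primer extension. Each ungapped eight-base word, pooled with its reverse complement, was scored with an E-score from the Universal PBM Analysis Suite.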

In order of rising “PBM E-score” value:
1. ACCCCAGG  -0.297
2. CCTCAGAG  -0.296
3. ATAGGGGG  -0.258
4. ACGACGAC  -0.241
5. CCAGGCTA  -0.219
6. CCCGTGCA  -0.216
7. AGGCGAGA  -0.181
8. ACTCACCG  -0.179
9. GTCCCAGA  -0.169
10. AAGGCTGG  -0.128
11. AGGCTATG  -0.122
12. CTCACGAC  -0.116
13. CGTAGGAC  -0.112
14. GAACATCA  -0.109
15. CTTAACGC  -0.106
16. CCTTTCTA  -0.105
17. CAGTGCGC  -0.0964
18. CTAACTAC  -0.0962
19. GCGACTCA  -0.0957
20. AGTCTGGC  -0.0919
21. ACGACAGT  -0.0887
22. GAAGCATC  -0.0878
23. AGCCTTAG  -0.085
24. AGAATGAG  -0.0793
25. CGGAATCC  -0.075
26. AGGTGTGC  -0.0746
27. GCCCTATA  -0.0678
28. CCAGGCGC  -0.0648
29. CATACTGG  -0.0633
30. AGAACATA  -0.0622
31. CGACTAGA  -0.0573
32. CCACGTCG  -0.0551
33. ACCGCAGA  -0.0544
34. CTTGACAC  -0.0541
35. CTCGTGCA  -0.0521
36. ACTTCAGG  -0.041
37. AGGTCTAT  -0.0282
38. CCAATGGA  -0.0231
39. AGATCAAT  -0.021
40. GAGTTAAC  -0.0189
41. CGAACATC  -0.0113
42. AAGGAACG  0.00462
43. AGTCAGAT  0.00648
44. CAACGCCA  0.00804
45. TAAAAAGA  0.0113
46. CAGCTGGC  0.0175
47. CAGGCTCG  0.0252
48. AGAATCAC  0.0307
49. ATCCGGCC  0.0315
50. GTTCTGTA  0.0365
51. CCCAAAAG  0.0388
52. ATAGTGGC  0.0417
53. AATACTCA  0.0527
54. AGCCGCCG  0.0553
55. GTCCCAAA  0.0565
56. CTGGAACC  0.0718
57. ATGTGTAA  0.0779
58. ACATTATG  0.0893
59. ACCAGGAC  0.0899
60. GTAGGACA  0.092
61. AATCCATA  0.0973
62. CATGCTGA  0.0973
63. ACAACGGG  0.0974
64. CGTTGACC  0.0989
65. AGTGGAGA  0.109
66. ATACTGAA  0.11
67. GATTGAAA  0.114
68. GACACAAA  0.119
69. ACGTGCGC  0.122
70. AACACCTG  0.123
71. GCTCGTCC  0.124
72. TCACGTGA  0.125
73. GAAAATTA  0.13
74. ATACGAGC  0.133
75. CGCGATAC  0.134
76. TCTCGAGA  0.146
77. AACCAGCT  0.149
78. GGAACAAA  0.152
79. ACAAGAAA  0.158
80. TTCCCAAA  0.161
81. ATCATACG  0.182
82. AATTTGAA  0.189
83. TACGCGCA  0.225
84. GCTTATAA  0.235
85. CGTGATTA  0.303
86. GCTTACTA  0.426
